Data: the supplement of paper PMC10735217
Structures can show the parent of a compound that is named as a salt. The list shows a part of the results. Repeats in this data set agree poorly, so a single value says little.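 Human kidney-derived cells stably carry a construct in which eight TEAD-binding elements drive luciferase, measured by luminescence in a drug-repurposing library screen. A hit is any compound whose signal exceeds the plate mean by more than five robust Z scores.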

Test system: HEK293A TEAD-LUC reporter
Experiment: TEAD-luciferase reporter activity (YAP activation), robust Z score vs plate; higher = stronger YAP/TEAD activation
Conditions: 24 h

SMILES | TEAD-luciferase reporter activity (compound concentration: 200 nM) | TEAD-luciferase reporter activity (compound concentration: 2 uM) | TEAD-luciferase reporter activity (compound concentration: 10 uM)
CC(=O)NC(CC(=O)NC(CCC(=O)O)C(=O)O)C(=O)O (centres undefined) [Spaglumic acid] | inactive: -1.15 | inactive: -0.785 | inactive: 2.85
C[C@@H](O[C@H]1OCCN(Cc2n[nH]c(=O)[nH]2)[C@H]1c1ccc(F)cc1)c1cc(C(F)(F)F)cc(C(F)(F)F)c1 [Aprepitant] | inactive: -0.213 | inactive: 1.6 | inactive: -0.831
O=NN(CCCl)C(=O)NCCCl [carmustine implant, Shandong Lanjin] | inactive: 0.0685 |  | inactive: 0.28
O=NN(CCCl)C(=O)NCCCl [carmustine implant] |  | inactive: 0.179 | 
CCOP(=O)(CCCCCCOc1ccc(F)cc1OC)OCC | inactive: 0.0445 | inactive: -1.51 | inactive: 0.511
CC(=O)OCC(COC(C)=O)OCn1cnc2nc(N)ncc21 | inactive: -0.748 | inactive: -0.223 | inactive: 0.319
CC(C=CC1=C(C)CCCC1(C)C)=CC=C1COC(=O)C=C1C | inactive: -0.25 | inactive: -0.458 | inactive: -0.255
CC(C)(O/N=C(/C(=O)N[C@@H]1C(=O)N2C(C(=O)[O-])=C(C[N+]3(C)Cc4cc(O)c(O)cc4C3)CS[C@H]12)c1csc(N)n1)C(=O)O | inactive: -2.19 | inactive: -0.752 | inactive: 1.68
Cc1cc(-c2ccc(/N=N/c3c(S(=O)(=O)[O-])cc4cc(S(=O)(=O)[O-])cc(N)c4c3O)c(C)c2)ccc1/N=N/c1c(S(=O)(=O)[O-])cc2cc(S(=O)(=O)[O-])cc(N)c2c1O | inactive: -1.37 | inactive: -1.77 | inactive: -1.95
Cc1cc(Nc2cc(N3CCN(C)CC3)nc(Sc3ccc(NC(=O)C4CC4)cc3)n2)n[nH]1 [Tozasertib] | active: 9.71 | inactive: 0.614 | active: 6.84
CCOC(=O)c1cnc(C(C)C)[nH]c1=O | inactive: -1.84 | inactive: 1.57 | inactive: -0.858
Cc1cccc2nc3cccc(C(=O)NCCNCCNCCNC(=O)c4cccc5nc6cccc(C)c6nc45)c3nc12 | inactive: -1.82 | inactive: 0.461 | inactive: 0.68
CC(C)C[C@H](NC(=O)OCC1c2ccccc2-c2ccccc21)C(=O)O | inactive: -0.745 | inactive: -0.0883 | active: 5.51
C[C@H](NC(=O)[C@@H](O)c1cc(F)cc(F)c1)C(=O)N[C@@H]1C(=O)N(C)N=Cc2ccccc21 | inactive: -0.439 | inactive: 0.843 | inactive: -0.604
CC(O)CNC(=O)c1ccccc1SSc1ccccc1C(=O)NCC(C)O (centres undefined) | inactive: -1.71 | inactive: -0.937 | inactive: 1.32
CCC1(c2ccccc2)C(=O)NCNC1=O [primidone] |  | inactive: -1.11 | 
CCC1(c2ccccc2)C(=O)NCNC1=O | inactive: -0.12 |  | inactive: -1.26
CC(=O)OC1CC(C)(C)N(O)C(C)(C)C1 | inactive: -0.0157 | inactive: -0.179 | inactive: 0.246
COCC(O)Cn1c(=O)cnn(-c2ccc(Cl)c(C(=O)NCC3(O)CCCCCC3)c2)c1=O (centres undefined) | inactive: -1.29 | inactive: -0.947 | inactive: 1.65

Laid out differently: entries from further up.
SMILES	TEAD-luciferase reporter activity (compound concentration: 200 nM)	TEAD-luciferase reporter activity (compound concentration: 2 uM)	TEAD-luciferase reporter activity (compound concentration: 10 uM)
O=NN(CCCl)C(=O)NCCCl [carmustine implant]		inactive: 0.179	
CCOP(=O)(CCCCCCOc1ccc(F)cc1OC)OCC	inactive: 0.0445	inactive: -1.51	inactive: 0.511

Remaining list, next part

SMILES | TEAD-luciferase reporter activity (compound concentration: 200 nM) | TEAD-luciferase reporter activity (compound concentration: 2 uM) | TEAD-luciferase reporter activity (compound concentration: 10 uM)
Cn1cc(C2=C(c3cn(C)c4cc([N+](=O)[O-])ccc34)C(=O)NC2=O)c2ccccc21 | inactive: -1.42 | inactive: -1.92 | inactive: 0.764
CCCCCCOc1nsnc1C1=CCCN(C)C1 [Xanomeline] | inactive: 1.72 | inactive: 0.0365 | inactive: -1.68
CNCc1ccc(-c2cc(-c3nc(-c4ccc(S(=O)(=O)C(C)C)cc4)cnc3N)on2)cc1 | inactive: 0.729 | inactive: -0.699 | inactive: -0.499
Cc1c(C(=O)Nc2ccc(Oc3ccnc4cc(OCC(C)(C)O)ccc34)c(F)c2)c(=O)n(-c2ccccc2)n1C [Ningetinib Tosylate] | inactive: 1.03 | inactive: -0.701 | inactive: -1.49
CCn1cc(C(=O)O)c(=O)c2cc(F)c(N3CCN(C)CC3)cc21 [Pefloxacin] |  | inactive: 0.727 | 
CCn1cc(C(=O)O)c(=O)c2cc(F)c(N3CCN(C)CC3)cc21 | inactive: 1.41 |  | inactive: 0.357
CN(C)CC(CN(C)C)OC(=O)COc1ccc(Cl)cc1 | inactive: 1.36 | inactive: -0.904 | inactive: 2.21
O=C(O)c1cc2cc(O)c(O)cc2c(C(=O)c2ccc(O)c(O)c2)n1 | inactive: -1.31 | inactive: -1.73 | active: 5.35
Oc1ccc(C2CNCCc3c2cc(O)c(O)c3Cl)cc1 (centres undefined) [Fenoldopam mesilate] |  | inactive: -0.0233 | 
Oc1ccc(C2CNCCc3c2cc(O)c(O)c3Cl)cc1 (centres undefined) | inactive: 1.88 |  | inactive: 1.31
[Cl][Mn][Cl] [Manganese chloride] | inactive: -0.0418 | inactive: 0.9 | inactive: -1.59
CN(C)C(=O)NC1CCN(c2nc3ncccc3o2)C1 (centres undefined) | inactive: 0.0339 |  | inactive: 0.68
Cc1cccc(CN2CCCC23Cc2ccccc2CNC3=O)c1 (centres undefined) | inactive: -1.43 |  | inactive: -0.159
O=C(O)CNC(=O)[C@@H](CS)Cc1ccc2c(c1)OCO2 | inactive: -0.512 | inactive: 0.364 | inactive: -1.4
O=C(CCCN1CCC(C(=O)c2ccc(Cl)cc2)CC1)c1ccc(F)cc1 | inactive: 4.29 | inactive: -0.658 | inactive: 0.33
C=C1CC[C@H](O)C/C1=C/C=C1\CCC[C@]2(C)[C@@H]([C@H](C)CCCC(C)(C)O)CC[C@@H]12 [Calcifediol] | inactive: -1.16 |  | inactive: 3.04
C=C1CC[C@H](O)C/C1=C/C=C1\CCC[C@]2(C)[C@@H]([C@H](C)CCCC(C)(C)O)CC[C@@H]12 [Calcifediol (monohydrate)] |  | inactive: 0.825 | 
CCN(CC)C(=O)Cc1csc(NS(=O)(=O)c2cccc(Cl)c2C)n1 | inactive: -1.6 | inactive: -2.33 | inactive: 4.79
